No constants are given. Whether binding was seen depends on the method and setting. Binding seen in cells or lysates may run through a third protein. A result given as binding can be weak or reduced; the word gives no strength.
Legend:
[1] = target: Flag-tagged COL10A1 (UniProt Q03692); assay: co-IP; exogenous Co-IP: plasmids co-transfected into HEK293T cells, 24 h, cold IP lysis buffer with phosphatase and protease inhibitors; protein G agarose beads with antibodies against the tag, 4°C overnight; SDS-PAGE and blot
[2] = target: collagen type X alpha 1 chain (COL10A1), endogenous (human (endogenous in PC3)) (UniProt Q03692); assay: co-IP; endogenous Co-IP: PC3 cells lysed in IP buffer, lysates precipitated with specific primary antibodies and protein G agarose beads, 4°C overnight; SDS-PAGE and blot

The chains behind the UniProt entries cited, without tags or fusion partners. Where a name states a change or a piece, a line headed by the entry shows the natural chain unless it says otherwise. Residues count along the entry.
UniProt Q03692, residues 19-680: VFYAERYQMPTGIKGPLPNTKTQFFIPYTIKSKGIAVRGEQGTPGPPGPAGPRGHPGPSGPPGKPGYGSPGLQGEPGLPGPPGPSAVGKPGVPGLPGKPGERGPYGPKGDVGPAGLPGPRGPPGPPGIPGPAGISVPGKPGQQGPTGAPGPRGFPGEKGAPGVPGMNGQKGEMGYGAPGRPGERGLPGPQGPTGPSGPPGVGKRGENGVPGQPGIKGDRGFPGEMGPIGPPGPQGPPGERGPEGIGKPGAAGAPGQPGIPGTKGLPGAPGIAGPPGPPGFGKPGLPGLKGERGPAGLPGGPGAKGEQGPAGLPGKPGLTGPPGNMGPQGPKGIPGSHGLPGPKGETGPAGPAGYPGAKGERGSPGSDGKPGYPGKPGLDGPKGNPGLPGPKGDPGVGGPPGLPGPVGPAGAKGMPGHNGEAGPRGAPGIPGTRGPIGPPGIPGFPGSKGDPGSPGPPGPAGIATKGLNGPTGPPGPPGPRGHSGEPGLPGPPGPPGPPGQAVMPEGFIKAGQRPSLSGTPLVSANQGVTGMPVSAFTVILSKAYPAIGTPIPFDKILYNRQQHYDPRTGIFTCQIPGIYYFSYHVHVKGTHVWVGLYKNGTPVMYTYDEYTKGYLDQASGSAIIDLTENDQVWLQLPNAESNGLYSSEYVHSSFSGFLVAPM
UniProt P08476: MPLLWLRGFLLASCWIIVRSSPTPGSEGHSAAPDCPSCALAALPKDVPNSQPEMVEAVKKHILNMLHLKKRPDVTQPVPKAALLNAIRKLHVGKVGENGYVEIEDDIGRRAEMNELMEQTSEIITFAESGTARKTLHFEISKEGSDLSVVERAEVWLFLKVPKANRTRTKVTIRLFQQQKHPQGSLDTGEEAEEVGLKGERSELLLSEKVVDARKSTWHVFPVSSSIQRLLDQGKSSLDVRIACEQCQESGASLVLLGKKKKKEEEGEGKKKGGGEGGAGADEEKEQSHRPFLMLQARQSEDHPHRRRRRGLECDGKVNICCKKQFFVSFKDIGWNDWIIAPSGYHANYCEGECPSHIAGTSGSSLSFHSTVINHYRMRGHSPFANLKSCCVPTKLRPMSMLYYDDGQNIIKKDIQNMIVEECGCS

binding [1] | binding [2] | Substance
binds | – | HA-tagged INHBA (from UniProt P08476)
– | binds | inhibin subunit beta A (INHBA), endogenous (from UniProt P08476)
